Test results taken from article PMC10007849.
These are yes or no findings as the source states them, for the method shown. In cells and extracts the contact can be indirect. Some entries that bind do so weakly or less than the wild type.

Chains of the proteins cited; added tags and fusions are not shown. Residues count along the entry.
UniProt P80188, residues 21-198: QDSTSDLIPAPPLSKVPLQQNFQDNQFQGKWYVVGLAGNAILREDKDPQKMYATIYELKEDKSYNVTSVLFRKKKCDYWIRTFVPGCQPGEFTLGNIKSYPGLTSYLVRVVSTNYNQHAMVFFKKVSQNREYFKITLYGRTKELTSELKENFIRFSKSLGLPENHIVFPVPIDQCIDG

Columns and labels:
[1] = target: Epidermal growth factor receptor (EGFR) (human (endogenous in CAL-27)) (UniProt P00533); experiment: co-IP; mutual co-IP from cell lysates with immunoblotting; S-protein agarose beads overnight at 4 °C for SFB-LCN2, or antibodies for two hours and then Protein A/G magnetic beads; washed three times with NETN buffer
[2] = target: SFB-LCN2 (lipocalin-2 with SFB tag) (human) (UniProt P80188); experiment: as above

binding [1]	binding [2]	Substance
binds		SFB-LCN2 (lipocalin-2 with SFB tag) (from UniProt P80188 21-198)
	binds	Epidermal growth factor receptor (EGFR) (from UniProt P00533 25-1210)
